No constants are given. Whether binding was seen depends on the method and setting. Binding seen in cells or lysates may run through a third protein. Binding can be weak; no strength is given.
Target: P2X7 receptor (Chinese hamster (endogenous in CHO-K1))
Experiment: co-IP; 500 ug whole CHO-K1 cell lysate (non-denaturing buffer: 20 mM Tris pH 7.4, 2 mM EDTA, 137 mM NaCl, 1% Nonidet-P40) incubated with polyclonal anti-P2X7 antibody overnight at 4 C, protein A/G PLUS-Agarose 4 h at 4 C, washed three times with PBS; blotted with anti-P2X7 and anti-CD44

binding: binds
B1: soluble CD44 ectodomain (60-kDa form of CD44) (domain or fragment, UniProt P20944 23-269)
chain: QIDLNITCRYAGVFHVEKNGRYSISRTEAADLCQAFNSTLPTMDQMVMALSKGFETCRYGFIEGHVVIPRIQPNAICAANHTGVYILTSNTSHYDTYCFNASAPLEEDCTSVTDLPNSFEGPVTITIVNRDGTRYSKKGEYRTHQEDIDASNTTDDDVSSGSSSEKSTSGGYVFHTYLPTIHSTADQDDPYFIGSTMATRDQDSSMDPRGNSLTVTDGSKLTEHSSGNQDSGLNSTSRPGGKPRVPE

Reference: article PMC4979527, “Post-translational allosteric activation of the P2X7 receptor through glycosaminoglycan chains of CD44 proteoglycans” (Cell Death Discovery, 2015)
